# Results deposited as PubChem BioAssay AID652243 (Drosophila RNAi Screening Center, 2013)
# Aim: 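Fly regulators of androgen-dependent reporter output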 (primary screen)
# System: Drosophila S2R+ cells
# Reagent: long dsRNA against Drosophila genes
# Duration: 72 h (48 h, then 24 h hormone)
# Conditions: synthetic androgen R1881 at 10 nM for 24 h
# Measured: 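Firefly light from an androgen-responsive reporter and Renilla control light per well, raw and unnormalised, for each of two replicates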
# Reading the numbers: firefly reporter light: higher = more light from androgen-responsive reporter; Renilla control light: higher = more constitutive control signal (cell number, transfection)
# Hit rule: 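Across duplicate plates, a knock-down whose log firefly/Renilla ratio shifted a set fold down or up from the GFP/LacZ control mean was a hit; the downward cut appears as both 1.5 and 3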
# Meaning of the calls: active = hit: reporter lowered or raised; inactive = no hit
# In all, the deposit lists about 24,000 reagents; this is an unselected part of those with a known target gene and a result. Of all reagents, 246 (1%) were called active. 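Plates not normalised; calls are printed but the firefly/Renilla ratio behind them is not deposited; fold cut for lowering reported inconsistently.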 Raw values vary from plate to plate and are shown uncorrected. Not given: the amount of reagent.
gene,dsRNA,"firefly reporter light, replicate 1","firefly reporter light, replicate 2","Renilla control light, replicate 1","Renilla control light, replicate 2",outcome
Snrk,DRSC07192,1.60e6,1.70e6,3.26e6,2.49e6,inactive
Snrk,DRSC23332,9.09e5,6.45e5,1.46e6,9.68e5,inactive
Snrk,DRSC37056,,,,,inactive
CG34190,DRSC38738,8.63e5,2.86e5,1.48e6,1.02e6,inactive
CG12439,DRSC02168,2.18e5,1.54e5,1.93e6,1.29e6,inactive
CG10301,DRSC14226,1.77e5,1.97e5,2.22e6,2.14e6,inactive
CSN5,DRSC16592,75525,91067,8.51e5,1.06e6,inactive
CSN5,DRSC22381,9.53e5,7.84e5,2.62e6,1.87e6,inactive
CSN5,DRSC27904,5.24e5,4.03e5,1.67e6,1.31e6,inactive
narya,DRSC19439,96361,1.61e5,9.38e5,1.18e6,inactive
Bub1,DRSC23158,5.70e5,7.39e5,1.05e6,1.26e6,inactive
Bub1,DRSC27436,3.03e5,3.58e5,6.23e5,6.37e5,inactive
Bub1,DRSC36838,,,,,inactive
Bub1,DRSC36839,,,,,inactive
CG14667,DRSC12253,30668,26757,1.15e6,1.20e6,inactive
CG14667,DRSC28216,7.57e5,1.06e6,1.42e6,1.87e6,inactive
CG8565,DRSC20112,4.96e5,4.19e5,3.33e6,2.72e6,inactive
CG8565,DRSC36818,,,,,inactive
CG8565,DRSC36819,,,,,inactive
Drat,DRSC06600,6.49e5,1.24e6,8.49e5,1.97e6,inactive
CG5510,DRSC15823,1.99e5,2.83e5,2.43e6,2.10e6,inactive
CG10428,DRSC02054,1.08e6,6.42e5,1.77e6,9.09e5,inactive
CG2975,DRSC37907,5.28e5,4.43e5,1.48e6,1.34e6,inactive
Zip88E,DRSC15562,1.44e5,1.48e5,2.42e6,2.69e6,inactive
Zip88E,DRSC25826,6.35e5,6.92e5,6.85e5,4.84e5,inactive
Lime,DRSC06752,4.28e5,3.68e5,3.00e6,2.74e6,inactive
Cipc,DRSC14898,88959,76349,9.45e5,7.77e5,inactive
Cipc,DRSC14900,1.63e5,1.50e5,2.42e6,1.95e6,inactive
squ,DRSC01549,1.96e5,1.92e5,6.04e5,5.47e5,inactive
CG10055,DRSC12503,91187,1.64e5,1.90e6,1.65e6,inactive
tipE,DRSC08738,8.81e5,5.14e5,1.83e6,1.15e6,inactive
tipE,DRSC29985,5.28e5,5.41e5,9.75e5,1.06e6,inactive
Mocs1,DRSC11225,1.95e5,2.30e5,1.59e6,1.37e6,inactive
NK7.1,DRSC25000,4.14e5,4.80e5,4.67e5,5.65e5,inactive
Pgm1,DRSC10490,35778,13936,2.61e5,1.99e5,inactive
Pgm1,DRSC28517,4.79e5,8.31e5,6.61e5,1.27e6,inactive
PMCA,DRSC17114,7.64e5,5.45e5,1.02e6,3.07e5,inactive
PMCA,DRSC17154,76077,90756,6.19e5,4.07e5,inactive
PMCA,DRSC38802,4.01e5,3.98e5,2.07e6,1.78e6,active
CG33475,DRSC22943,4.15e5,8.90e5,2.97e5,3.82e5,inactive

Entries listed so far with an active call (1):
gene,dsRNA,"firefly reporter light, replicate 1","firefly reporter light, replicate 2","Renilla control light, replicate 1","Renilla control light, replicate 2",outcome
PMCA,DRSC38802,4.01e5,3.98e5,2.07e6,1.78e6,active
